Measured values taken from the supplement of paper PMC10849652.
The other results are listed elsewhere or left out.

The chains behind the UniProt entries cited, without tags or fusion partners. Where a name states a change or a piece, a line headed by the entry shows the natural chain unless it says otherwise.
UniProt Q9Y6W3: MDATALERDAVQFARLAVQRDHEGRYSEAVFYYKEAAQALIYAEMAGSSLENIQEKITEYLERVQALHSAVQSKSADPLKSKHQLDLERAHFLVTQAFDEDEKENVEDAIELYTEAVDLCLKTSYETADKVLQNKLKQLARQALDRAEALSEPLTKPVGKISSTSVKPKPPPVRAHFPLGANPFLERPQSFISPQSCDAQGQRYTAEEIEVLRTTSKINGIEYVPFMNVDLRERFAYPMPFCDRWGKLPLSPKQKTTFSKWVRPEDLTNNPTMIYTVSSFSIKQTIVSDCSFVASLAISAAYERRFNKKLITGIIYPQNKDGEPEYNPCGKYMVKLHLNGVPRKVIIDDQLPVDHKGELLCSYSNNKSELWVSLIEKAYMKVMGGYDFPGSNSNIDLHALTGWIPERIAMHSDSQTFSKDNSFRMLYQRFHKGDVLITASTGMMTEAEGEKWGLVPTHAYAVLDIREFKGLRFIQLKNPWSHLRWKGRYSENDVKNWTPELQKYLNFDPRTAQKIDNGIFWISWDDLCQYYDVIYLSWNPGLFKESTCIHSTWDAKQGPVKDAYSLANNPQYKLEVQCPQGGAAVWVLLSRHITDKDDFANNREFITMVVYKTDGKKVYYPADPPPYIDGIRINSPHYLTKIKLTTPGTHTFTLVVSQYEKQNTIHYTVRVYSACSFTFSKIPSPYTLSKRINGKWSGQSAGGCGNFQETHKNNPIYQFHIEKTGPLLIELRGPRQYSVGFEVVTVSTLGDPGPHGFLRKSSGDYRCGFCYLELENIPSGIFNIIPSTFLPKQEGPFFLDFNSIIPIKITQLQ
UniProt Q7L1Q6: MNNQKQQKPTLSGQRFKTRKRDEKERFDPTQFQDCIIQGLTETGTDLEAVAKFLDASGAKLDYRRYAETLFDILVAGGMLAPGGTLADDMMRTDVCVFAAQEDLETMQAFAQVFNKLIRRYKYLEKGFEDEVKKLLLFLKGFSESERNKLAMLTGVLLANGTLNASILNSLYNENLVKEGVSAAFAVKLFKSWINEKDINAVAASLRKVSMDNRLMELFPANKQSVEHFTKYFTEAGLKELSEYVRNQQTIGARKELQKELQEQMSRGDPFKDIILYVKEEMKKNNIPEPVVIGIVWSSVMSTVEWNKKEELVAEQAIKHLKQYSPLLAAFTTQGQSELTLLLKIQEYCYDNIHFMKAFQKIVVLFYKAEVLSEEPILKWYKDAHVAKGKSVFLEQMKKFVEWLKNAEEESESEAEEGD
UniProt O43852: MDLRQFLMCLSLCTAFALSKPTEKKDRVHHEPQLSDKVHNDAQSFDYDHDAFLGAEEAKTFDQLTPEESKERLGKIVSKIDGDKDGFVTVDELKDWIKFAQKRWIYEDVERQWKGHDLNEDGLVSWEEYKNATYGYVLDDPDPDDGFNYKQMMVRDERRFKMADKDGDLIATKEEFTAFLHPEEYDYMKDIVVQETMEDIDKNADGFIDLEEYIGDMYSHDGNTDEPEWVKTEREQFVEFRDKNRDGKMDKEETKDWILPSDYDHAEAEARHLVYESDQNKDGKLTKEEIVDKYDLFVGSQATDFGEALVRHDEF
UniProt Q6ZSJ8: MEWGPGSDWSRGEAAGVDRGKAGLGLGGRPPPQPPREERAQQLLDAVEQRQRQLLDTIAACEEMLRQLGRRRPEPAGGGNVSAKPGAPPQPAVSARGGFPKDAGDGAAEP
UniProt Q8N8R5: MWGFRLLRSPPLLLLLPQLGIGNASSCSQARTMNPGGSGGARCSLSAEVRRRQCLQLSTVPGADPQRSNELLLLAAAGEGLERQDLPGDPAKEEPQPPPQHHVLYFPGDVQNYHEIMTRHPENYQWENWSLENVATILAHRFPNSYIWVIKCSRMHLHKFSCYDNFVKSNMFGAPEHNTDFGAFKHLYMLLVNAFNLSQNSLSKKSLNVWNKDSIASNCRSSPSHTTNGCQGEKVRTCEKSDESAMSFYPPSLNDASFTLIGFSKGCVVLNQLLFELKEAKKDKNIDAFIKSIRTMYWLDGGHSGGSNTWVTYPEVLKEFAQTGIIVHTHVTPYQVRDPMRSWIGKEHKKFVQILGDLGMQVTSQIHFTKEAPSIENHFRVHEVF
UniProt Q49AR2: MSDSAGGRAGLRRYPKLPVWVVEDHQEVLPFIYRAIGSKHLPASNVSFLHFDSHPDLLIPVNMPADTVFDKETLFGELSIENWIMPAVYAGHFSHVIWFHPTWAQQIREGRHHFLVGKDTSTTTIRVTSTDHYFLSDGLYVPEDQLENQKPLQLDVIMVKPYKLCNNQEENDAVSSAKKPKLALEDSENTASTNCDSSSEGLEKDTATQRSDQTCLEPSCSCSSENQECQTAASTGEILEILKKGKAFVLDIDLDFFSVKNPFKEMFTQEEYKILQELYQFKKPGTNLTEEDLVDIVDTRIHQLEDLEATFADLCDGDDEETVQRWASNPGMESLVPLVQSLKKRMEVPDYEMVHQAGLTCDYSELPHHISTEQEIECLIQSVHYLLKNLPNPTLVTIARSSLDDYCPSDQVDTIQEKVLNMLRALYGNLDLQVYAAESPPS
UniProt O43684, whole entry, looked up: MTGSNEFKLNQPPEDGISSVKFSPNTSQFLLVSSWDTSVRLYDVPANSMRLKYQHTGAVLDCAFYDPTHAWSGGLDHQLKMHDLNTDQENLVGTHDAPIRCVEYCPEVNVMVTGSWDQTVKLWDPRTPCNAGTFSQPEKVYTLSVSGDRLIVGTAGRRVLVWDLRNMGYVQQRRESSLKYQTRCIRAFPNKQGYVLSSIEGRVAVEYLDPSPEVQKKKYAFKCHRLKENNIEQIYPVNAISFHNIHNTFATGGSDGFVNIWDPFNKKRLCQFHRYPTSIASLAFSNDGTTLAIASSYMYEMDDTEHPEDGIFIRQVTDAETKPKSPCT
UniProt Q5T5Y3: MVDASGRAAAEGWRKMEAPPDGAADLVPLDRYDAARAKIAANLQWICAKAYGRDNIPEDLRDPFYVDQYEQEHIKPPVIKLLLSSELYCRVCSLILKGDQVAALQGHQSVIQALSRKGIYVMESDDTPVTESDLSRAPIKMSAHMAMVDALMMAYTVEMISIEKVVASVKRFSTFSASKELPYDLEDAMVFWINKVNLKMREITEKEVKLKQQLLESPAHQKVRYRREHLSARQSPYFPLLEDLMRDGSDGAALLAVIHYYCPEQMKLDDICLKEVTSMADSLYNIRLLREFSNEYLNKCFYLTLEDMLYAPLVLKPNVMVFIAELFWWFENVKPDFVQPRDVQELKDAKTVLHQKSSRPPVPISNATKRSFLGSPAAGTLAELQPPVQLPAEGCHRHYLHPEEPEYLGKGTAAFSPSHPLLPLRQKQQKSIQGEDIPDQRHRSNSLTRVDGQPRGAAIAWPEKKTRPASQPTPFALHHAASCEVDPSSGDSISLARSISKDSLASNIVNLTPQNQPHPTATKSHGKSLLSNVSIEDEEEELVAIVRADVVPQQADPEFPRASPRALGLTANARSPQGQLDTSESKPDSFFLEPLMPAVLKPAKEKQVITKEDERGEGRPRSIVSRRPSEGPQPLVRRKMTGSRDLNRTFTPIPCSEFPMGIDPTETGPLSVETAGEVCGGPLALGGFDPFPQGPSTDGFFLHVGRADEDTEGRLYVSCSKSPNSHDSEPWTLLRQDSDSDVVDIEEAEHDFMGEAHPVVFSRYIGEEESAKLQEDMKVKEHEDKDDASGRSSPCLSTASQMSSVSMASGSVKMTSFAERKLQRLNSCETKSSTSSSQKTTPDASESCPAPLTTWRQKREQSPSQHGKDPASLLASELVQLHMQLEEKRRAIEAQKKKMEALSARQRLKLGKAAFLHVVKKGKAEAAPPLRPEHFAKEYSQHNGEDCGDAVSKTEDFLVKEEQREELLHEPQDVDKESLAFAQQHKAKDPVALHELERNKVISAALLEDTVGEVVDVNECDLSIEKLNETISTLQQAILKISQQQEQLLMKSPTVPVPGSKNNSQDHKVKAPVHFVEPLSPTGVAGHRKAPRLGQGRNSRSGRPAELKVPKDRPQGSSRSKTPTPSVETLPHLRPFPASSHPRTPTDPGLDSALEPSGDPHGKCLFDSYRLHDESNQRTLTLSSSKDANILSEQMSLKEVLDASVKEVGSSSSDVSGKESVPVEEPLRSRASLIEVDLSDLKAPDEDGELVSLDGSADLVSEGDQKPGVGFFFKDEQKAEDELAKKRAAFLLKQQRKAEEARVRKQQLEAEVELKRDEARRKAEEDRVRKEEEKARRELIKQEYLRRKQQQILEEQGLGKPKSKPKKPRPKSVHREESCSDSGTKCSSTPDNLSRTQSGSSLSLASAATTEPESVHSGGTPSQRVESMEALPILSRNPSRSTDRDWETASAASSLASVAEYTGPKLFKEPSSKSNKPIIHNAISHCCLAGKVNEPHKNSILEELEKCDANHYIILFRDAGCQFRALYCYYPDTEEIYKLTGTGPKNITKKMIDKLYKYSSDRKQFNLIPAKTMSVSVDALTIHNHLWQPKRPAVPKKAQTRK
UniProt P17655: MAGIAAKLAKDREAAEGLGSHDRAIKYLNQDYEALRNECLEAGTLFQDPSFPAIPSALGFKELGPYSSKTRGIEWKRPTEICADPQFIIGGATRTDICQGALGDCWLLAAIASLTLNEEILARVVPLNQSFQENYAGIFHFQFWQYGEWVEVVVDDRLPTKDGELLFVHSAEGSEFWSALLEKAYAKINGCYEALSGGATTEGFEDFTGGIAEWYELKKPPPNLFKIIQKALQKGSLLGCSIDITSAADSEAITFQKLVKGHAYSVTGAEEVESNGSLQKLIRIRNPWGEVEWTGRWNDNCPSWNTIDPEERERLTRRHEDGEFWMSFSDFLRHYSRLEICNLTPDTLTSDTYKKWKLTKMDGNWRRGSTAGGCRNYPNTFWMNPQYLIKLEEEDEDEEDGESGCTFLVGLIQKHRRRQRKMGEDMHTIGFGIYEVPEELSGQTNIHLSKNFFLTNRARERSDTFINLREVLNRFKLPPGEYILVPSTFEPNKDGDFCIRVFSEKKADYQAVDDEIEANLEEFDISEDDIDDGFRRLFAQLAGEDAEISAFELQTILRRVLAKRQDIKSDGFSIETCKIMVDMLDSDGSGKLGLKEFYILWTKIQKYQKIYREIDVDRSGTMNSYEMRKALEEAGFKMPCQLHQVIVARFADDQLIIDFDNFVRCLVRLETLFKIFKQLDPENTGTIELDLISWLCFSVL
UniProt Q13895: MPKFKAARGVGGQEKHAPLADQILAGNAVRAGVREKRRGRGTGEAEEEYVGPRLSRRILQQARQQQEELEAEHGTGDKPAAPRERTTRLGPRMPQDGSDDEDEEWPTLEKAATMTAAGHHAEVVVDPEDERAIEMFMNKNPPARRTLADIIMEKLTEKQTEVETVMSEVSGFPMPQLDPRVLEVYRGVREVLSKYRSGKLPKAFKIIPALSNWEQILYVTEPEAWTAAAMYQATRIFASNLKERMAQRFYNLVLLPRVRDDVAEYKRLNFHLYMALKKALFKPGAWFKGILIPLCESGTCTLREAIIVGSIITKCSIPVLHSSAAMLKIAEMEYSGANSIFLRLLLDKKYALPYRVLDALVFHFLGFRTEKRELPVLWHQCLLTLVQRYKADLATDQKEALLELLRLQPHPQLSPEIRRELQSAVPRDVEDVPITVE
UniProt P35219: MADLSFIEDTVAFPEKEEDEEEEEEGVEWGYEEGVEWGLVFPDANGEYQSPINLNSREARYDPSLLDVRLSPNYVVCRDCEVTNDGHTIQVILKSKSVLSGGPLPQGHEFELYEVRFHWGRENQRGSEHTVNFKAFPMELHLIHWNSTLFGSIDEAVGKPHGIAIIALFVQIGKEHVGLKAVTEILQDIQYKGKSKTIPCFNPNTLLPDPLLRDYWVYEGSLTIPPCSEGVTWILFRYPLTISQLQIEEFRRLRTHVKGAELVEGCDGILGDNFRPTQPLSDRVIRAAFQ
UniProt Q96B23: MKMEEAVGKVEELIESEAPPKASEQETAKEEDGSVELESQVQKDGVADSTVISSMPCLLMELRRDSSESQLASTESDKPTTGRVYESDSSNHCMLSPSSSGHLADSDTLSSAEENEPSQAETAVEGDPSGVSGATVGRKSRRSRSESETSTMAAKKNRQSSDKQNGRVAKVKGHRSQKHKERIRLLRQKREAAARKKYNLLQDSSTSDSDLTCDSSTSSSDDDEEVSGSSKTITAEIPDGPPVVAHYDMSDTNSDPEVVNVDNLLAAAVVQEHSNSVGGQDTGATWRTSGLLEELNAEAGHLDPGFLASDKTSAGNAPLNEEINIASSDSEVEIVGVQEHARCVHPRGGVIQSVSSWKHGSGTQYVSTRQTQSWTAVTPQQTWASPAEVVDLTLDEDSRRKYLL
UniProt P41223: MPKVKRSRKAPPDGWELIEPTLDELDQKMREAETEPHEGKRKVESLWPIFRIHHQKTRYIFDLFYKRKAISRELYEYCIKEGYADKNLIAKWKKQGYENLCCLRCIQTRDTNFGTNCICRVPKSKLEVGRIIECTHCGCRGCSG

Legend:
Test in all cases: log2 fold change, soluble protein after heating vs DMSO (PISA); higher = thermal stabilisation; K562 cells, 10 uM, 30 min; active = over 0.2 and 3.5 SD of the protein, either way, in both replicates (recomputed)
bafetinib = compound: Cc1ccc(NC(=O)c2ccc(CN3CC[C@H](N(C)C)C3)c(C(F)(F)F)c2)cc1Nc1nccc(-c2cncnc2)n1 [bafetinib]
Outline: (§1)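 Values are thermal stability changes relative to control samples and are taken from duplicates. They are stated as log2 fold changes. Before quantification by TMTpro 16plex LC-MS/MS with equalised channel sums, K562 cells at 2×10^6 cells/mL were treated with 10 μM compound for 30 min, heated in aliquots for 3 min across 48°C-58°C, pooled, extracted in PBS with 0.5% NP-40 at 4°C, and centrifuged at 21,000xg for 90 min to give the soluble supernatant.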

[1] = compound: Cc1cccc(CC(=O)N2CCc3c2ccc(-c2cn(C)c4ncnc(N)c24)c3F)n1
Outline: as §1

nilotinib = compound: Cc1cn(-c2cc(NC(=O)c3ccc(C)c(Nc4nccc(-c5cccnc5)n4)c3)cc(C(F)(F)F)c2)cn1 [nilotinib]
Outline: as §1

[2] = compound: Cc1nc(Nc2n[nH]c3c2CN(C(=O)N[C@H](CN(C)C)c2ccccc2)C3(C)C)c2sccc2n1
Outline: as §1

dasatinib = compound: Cc1nc(Nc2ncc(C(=O)Nc3c(C)cccc3Cl)s2)cc(N2CCN(CCO)CC2)n1 [dasatinib]
Outline: as §1

[3] = compound: Cc1ncc(-c2ccnc(Nc3ccc(S(C)(=O)=O)cc3)n2)n1C(C)C
Outline: as §1

[4] = compound: Cn1cc(-c2ccc3c(c2)CCN3C(=O)Cc2cccc(C(F)(F)F)c2)c2c(N)ncnc21
Outline: as §1

[5] = compound: Cn1cc(-c2ccc3nnc(C(F)(F)c4ccc5ncccc5c4)n3n2)cn1
Outline: as §1

tipifarnib = compound: Cn1cncc1[C@@](N)(c1ccc(Cl)cc1)c1ccc2c(c1)c(-c1cccc(Cl)c1)cc(=O)n2C [tipifarnib]
Outline: as §1

mubritinib = compound: FC(F)(F)c1ccc(/C=C/c2nc(COc3ccc(CCCCn4ccnn4)cc3)co2)cc1 [mubritinib]
Outline: as §1

[6] = compound: NC(=O)Nc1cc(-c2cccc(F)c2)sc1C(=O)N[C@H]1CCCNC1
Outline: as §1

[7] = compound: NC(=O)c1cnc(N[C@@H]2CCCC[C@@H]2N)nc1Nc1cccc(-n2nccn2)c1
Outline: as §1

[8] = compound: NC1(c2ccc(-c3nc4ccn5c(=O)[nH]nc5c4cc3-c3ccccc3)cc2)CCC1
Outline: as §1

[9] = compound: NCC(=O)Nc1ccc(-n2nc(C(F)(F)F)cc2-c2ccc3c(ccc4ccccc43)c2)cc1
Outline: as §1

entinostat = compound: Nc1ccccc1NC(=O)c1ccc(CNC(=O)OCc2cccnc2)cc1 [entinostat]
Outline: as §1

vorinostat = compound: O=C(CCCCCCC(=O)Nc1ccccc1)NO [vorinostat]
Outline: as §1

citarinostat = compound: O=C(CCCCCCNC(=O)c1cnc(N(c2ccccc2)c2ccccc2Cl)nc1)NO [citarinostat]
Outline: as §1

silmitasertib = compound: O=C(O)c1ccc2c(c1)nc(Nc1cccc(Cl)c1)c1ccncc12 [silmitasertib]
Outline: as §1

[10] = compound: O=C1NC(=O)C(c2cnc3ccccn23)=C1c1cn2c3c(cc(F)cc13)CN(C(=O)N1CCCCC1)CC2
Outline: as §1

[11] = compound: c1cc(OCCN2CCCCC2)cc(-c2n[nH]c3ccc(-c4nnc[nH]4)cc23)c1
Outline: as §1

| Target | log2 fold change (bafetinib) | log2 fold change [1] | log2 fold change (nilotinib) | log2 fold change [2] | log2 fold change (dasatinib) | log2 fold change [3] | log2 fold change [4] | log2 fold change [5] | log2 fold change (tipifarnib) | log2 fold change (mubritinib) | log2 fold change [6] | log2 fold change [7] | log2 fold change [8] | log2 fold change [9] | log2 fold change (entinostat) | log2 fold change (vorinostat) | log2 fold change (citarinostat) | log2 fold change (silmitasertib) | log2 fold change [10] | log2 fold change [11] |
| --- | --- | --- | --- | --- | --- | --- | --- | --- | --- | --- | --- | --- | --- | --- | --- | --- | --- | --- | --- | --- |
| CAPN7 (UniProt Q9Y6W3) | inactive: -0.005 | inactive: 0.028 | inactive: -0.049 | inactive: -0.103 | inactive: -0.137 | inactive: -0.002 | inactive: 0.048 | inactive: 0.011 | inactive: -0.131 | inactive: 0.073 | inactive: 0.013 | inactive: -0.072 | inactive: -0.185 | inactive: -0.022 | inactive: 0.049 | inactive: 0.067 | inactive: -0.001 | inactive: 0.013 | inactive: -0.033 | inactive: -0.021 |
| C20orf27 isoform 2 (UniProt Q9GZN8) | inactive: 0.033 | inactive: 0.064 | inactive: 0.02 | inactive: 0.025 | inactive: -0.136 | inactive: -0.003 | inactive: 0.069 | inactive: -0.028 | inactive: -0.121 | inactive: 0.008 | inactive: 0.014 | inactive: -0.063 | inactive: -0.017 | inactive: -0.043 | inactive: 0.033 | inactive: 0.113 | inactive: 0.051 | inactive: -0.013 | inactive: -0.108 | inactive: -0.047 |
| BZW1 isoform 3 (UniProt Q7L1Q6) | inactive: 0.002 | inactive: 0.167 | inactive: -0.124 | inactive: -0.138 | inactive: -0.283 | inactive: 0.03 | inactive: 0.017 | inactive: 0.011 | inactive: -0.364 | inactive: 0.089 | inactive: 0.071 | inactive: -0.054 | inactive: -0.246 | inactive: -0.093 | inactive: 0.165 | inactive: 0.209 | inactive: 0.075 | inactive: 0.02 | inactive: 0.019 | inactive: -0.081 |
| CALU isoform 3 (UniProt O43852) | inactive: -0.059 | inactive: -0.055 | inactive: 0.005 | inactive: 0.003 | inactive: 0.065 | inactive: -0.037 | inactive: 0.004 | inactive: -0.037 | inactive: 0.087 | inactive: 0.025 | inactive: 0.002 | inactive: 0.001 | inactive: 0.022 | inactive: 0.005 | inactive: -0.014 | inactive: -0.038 | inactive: -0.022 | inactive: 0.013 | inactive: -0.038 | inactive: -0.015 |
| C2CD5 isoform 4 (UniProt Q86YS7) | inactive: -0.06 | inactive: -0.006 | inactive: -0.032 | inactive: 0.035 | inactive: -0.144 | inactive: -0.039 | inactive: 0.075 | inactive: 0.018 | inactive: 0.014 | inactive: 0.07 | inactive: -0.111 | inactive: -0.013 | inactive: -0.099 | inactive: 0.041 | inactive: 0.003 | inactive: 0.01 | inactive: -0.033 | inactive: -0.031 | inactive: -0.029 | inactive: -0.014 |
| C1orf122 (UniProt Q6ZSJ8) | inactive: -0.065 | inactive: -0.143 | inactive: -0.022 | inactive: -0.048 | inactive: 0.031 | inactive: 0 | inactive: -0.009 | inactive: 0.02 | inactive: 0.089 | inactive: 0.088 | inactive: -0.119 | inactive: 0.117 | inactive: -0.023 | inactive: -0.016 | inactive: 0.01 | inactive: -0.242 | inactive: 0.012 | inactive: 0.026 | inactive: -0.103 | inactive: -0.022 |
| C2orf69 (UniProt Q8N8R5) | inactive: -0.005 | inactive: -0.036 | inactive: -0.085 | inactive: 0.027 | inactive: 0.014 | inactive: -0.004 | inactive: -0.041 | inactive: -0.089 | inactive: -0.034 | inactive: 0.051 | inactive: 0.042 | inactive: -0.085 | inactive: -0.027 | inactive: 0.023 | inactive: -0.055 | inactive: 0.056 | inactive: 0.109 | inactive: -0.031 | inactive: 0.008 | inactive: -0.028 |
| C5orf22 (UniProt Q49AR2) | inactive: -0.041 | inactive: 0.024 | inactive: -0.026 | inactive: 0.074 | inactive: -0.089 | inactive: -0.024 | inactive: 0.107 | inactive: 0.009 | inactive: -0.053 | inactive: 0.132 | inactive: -0.008 | inactive: -0.055 | inactive: -0.057 | inactive: -0.109 | inactive: 0.008 | inactive: -0.003 | inactive: 0.025 | inactive: -0.033 | inactive: -0.018 | inactive: -0.026 |
| BUB3 (UniProt O43684) | inactive: -0.019 | inactive: -0.025 | inactive: -0.012 | inactive: 0.006 | inactive: 0.023 | inactive: 0.003 | inactive: 0.005 | inactive: -0.009 | inactive: -0.034 | inactive: 0.013 | inactive: -0.008 | inactive: -0.062 | inactive: -0.02 | inactive: -0.021 | inactive: -0.017 | inactive: 0.01 | inactive: 0.01 | inactive: -0.018 | inactive: -0.002 | inactive: 0.003 |
| C2orf49 (UniProt Q9BVC5) | inactive: 0.033 | inactive: 0 | inactive: 0.017 | inactive: 0.059 | inactive: 0.143 | inactive: 0.114 | inactive: 0.014 | inactive: -0.063 | inactive: -0.024 | inactive: -0.126 | inactive: 0.388 | inactive: 0.149 | inactive: 0.02 | inactive: 0.033 | inactive: 0.041 | inactive: 0.055 | inactive: 0.006 | inactive: 0.191 | inactive: 0.297 | inactive: -0.09 |
| CAMSAP1 isoform 3 (UniProt Q5T5Y3) | inactive: -0.019 | inactive: -0.05 | inactive: 0.043 | inactive: -0.061 | inactive: -0.144 | inactive: -0.055 | inactive: 0.091 | inactive: -0.021 | inactive: -0.132 | inactive: -0.005 | inactive: 0.124 | inactive: -0.048 | inactive: -0.172 | active: -0.466 | inactive: -0.29 | inactive: -0.078 | inactive: 0.045 | inactive: 0.064 | inactive: -0.028 | inactive: -0.013 |
| CAPN2 (UniProt P17655) | inactive: -0.03 | inactive: 0.002 | inactive: 0.043 | inactive: -0.024 | inactive: -0.021 | inactive: -0.045 | inactive: 0.097 | inactive: 0.02 | inactive: 0.005 | inactive: 0.037 | inactive: -0.013 | inactive: -0.011 | inactive: -0.077 | inactive: 0.027 | inactive: -0.018 | inactive: 0.002 | inactive: -0.005 | inactive: -0.02 | inactive: -0.018 | inactive: 0.036 |
| BYSL (UniProt Q13895) | inactive: 0.118 | inactive: 0.034 | inactive: -0.131 | inactive: 0.163 | inactive: -0.082 | inactive: 0.064 | inactive: -0.05 | inactive: -0.003 | inactive: -0.063 | inactive: 0.062 | inactive: -0.012 | inactive: 0.053 | inactive: -0.052 | inactive: 0.062 | inactive: 0.046 | inactive: 0.058 | inactive: -0.007 | inactive: 0.085 | inactive: 0.068 | inactive: 0.001 |
| CA8 (UniProt P35219) | inactive: -0.042 | inactive: 0.079 | inactive: 0.006 | inactive: -0.017 | inactive: -0.187 | inactive: -0.01 | inactive: 0.083 | inactive: -0.063 | inactive: -0.064 | inactive: 0.06 | inactive: 0.035 | inactive: -0.069 | inactive: -0.167 | inactive: -0.058 | inactive: 0.049 | inactive: 0.025 | inactive: 0.108 | inactive: 0.029 | inactive: -0.142 | inactive: -0.027 |
| C18orf25 (UniProt Q96B23) | inactive: -0.089 | inactive: -0.059 | inactive: -0.055 | inactive: -0.045 | inactive: 0.031 | inactive: -0.049 | inactive: 0.024 | inactive: -0.059 | inactive: 0.02 | inactive: 0.063 | inactive: 0.036 | inactive: 0.086 | inactive: -0.015 | inactive: 0.007 | inactive: -0.021 | inactive: 0.007 | inactive: 0.027 | inactive: -0.014 | inactive: -0.091 | inactive: 0.033 |
| BUD31 (UniProt P41223) | inactive: -0.102 | inactive: 0.05 | inactive: 0.013 | inactive: 0.008 | inactive: -0.026 | inactive: 0.031 | inactive: -0.002 | inactive: -0.058 | inactive: -0.042 | inactive: -0.02 | inactive: -0.037 | inactive: 0.067 | inactive: 0.077 | inactive: -0.034 | inactive: 0.022 | inactive: -0.014 | inactive: -0.025 | inactive: -0.05 | inactive: -0.052 | inactive: -0.054 |

For reference, part of the list above:

| Target | log2 fold change (bafetinib) | log2 fold change [1] | log2 fold change (nilotinib) | log2 fold change [2] | log2 fold change (dasatinib) | log2 fold change [3] | log2 fold change [4] | log2 fold change [5] | log2 fold change (tipifarnib) | log2 fold change (mubritinib) | log2 fold change [6] | log2 fold change [7] | log2 fold change [8] | log2 fold change [9] | log2 fold change (entinostat) | log2 fold change (vorinostat) | log2 fold change (citarinostat) | log2 fold change (silmitasertib) | log2 fold change [10] | log2 fold change [11] |
| --- | --- | --- | --- | --- | --- | --- | --- | --- | --- | --- | --- | --- | --- | --- | --- | --- | --- | --- | --- | --- |
| C1orf122 (UniProt Q6ZSJ8) | inactive: -0.065 | inactive: -0.143 | inactive: -0.022 | inactive: -0.048 | inactive: 0.031 | inactive: 0 | inactive: -0.009 | inactive: 0.02 | inactive: 0.089 | inactive: 0.088 | inactive: -0.119 | inactive: 0.117 | inactive: -0.023 | inactive: -0.016 | inactive: 0.01 | inactive: -0.242 | inactive: 0.012 | inactive: 0.026 | inactive: -0.103 | inactive: -0.022 |
| C2orf69 (UniProt Q8N8R5) | inactive: -0.005 | inactive: -0.036 | inactive: -0.085 | inactive: 0.027 | inactive: 0.014 | inactive: -0.004 | inactive: -0.041 | inactive: -0.089 | inactive: -0.034 | inactive: 0.051 | inactive: 0.042 | inactive: -0.085 | inactive: -0.027 | inactive: 0.023 | inactive: -0.055 | inactive: 0.056 | inactive: 0.109 | inactive: -0.031 | inactive: 0.008 | inactive: -0.028 |
